This is an account of results in PubChem BioAssay AID1117361 (Southern Research Institute, 2015).

Hit rate of the full screen: of about 3,600 compounds, about 900 (25%) were called active. The rule behind the calls is not given here. This is a selection; strong and weak results do not stand in their true shares. Entries with a potency or affinity are not part of this list.

The target of this experiment is Protein Tat (Human immunodeficiency virus type 1 group M subtype B (isolate HXB2)) (UniProt P04608). In words: HIV-1 Tat–TAR interaction blockers – biochemical, fluorescence polarization, FAM-labeled TAR RNA, counter-screen for Vif-APOBEC3G degradation inhibitor project, dose response (AID 1117361). The note with it: Tat-TAR RNA binding; at 100 µM (top of the series).
In the case of `Cn1cccc1/C=C1\C(=O)NC(=O)N(Cc2ccccc2)C1=O`, the inhibition was inactive: 75.3%.
